Values joined by “and” are separate entries in the source; they are usually repeats but may differ in a detail not shown here. Equal entries are not always repeated. The campaign covered roughly 59,000 compounds. About 6,500 (11%) were called active. Inconclusive results, whose numbers are uncertain, are shown with a selection of clear calls. No stated cut-off is given here; in the data, active means max dye-equivalent concentration above about 10 nM; inconclusive means mostly about 1.1 nM to 9.6 nM; inactive means weaker than that. Some structures have more than one record in an assay (separate samples or runs), and their calls can disagree.
experiment: qHTS Assay for Spectroscopic Profiling in A350 Spectral Region; conditions: Compound autofluorescence, 340/450 nm, Alexa 350 dye-equivalents; hits give high values

Row | Structure (SMILES) | max dye-equivalent concentration
1 | COc1cc(C2=NOC(C(=O)Nc3ccc(C)cc3)C2)cc(OC)c1OC (stereo not given) | inconclusive: 2.2e-09 M
2 | Cc1cc(NC(=O)C2CCC2)n(-c2ccccn2)n1 | inconclusive: 1.4e-09 M
3 | CC(=O)c1c(C)n([O-])c2cc(C)ccc2[n+]1=O | active: 3.2e-08 M
4 | C=C(C)CSc1nnc([C@@H]2CCCN2C(=O)OC(C)(C)C)o1 | inactive
5 | CCCCOc1ccc(Cl)cc1CSc1nnc(CC)n1N | inconclusive: 2.5e-09 M
6 | CCN(CC)CCNC(=O)c1nn(-c2ccc(C)cc2)c(=O)c2c1c1ccccc1n2C | inconclusive: 7.1e-09 M
7 | O=C(CSCc1nc2ccccc2[nH]1)N1CCN(c2cccc(Cl)c2)CC1 | inconclusive: 3e-09 M
9 | CC1C(O)=C(c2nc3ccccc3[nH]2)C(=N)N1c1ccccc1 (stereo not given) | inconclusive: 2.4e-09 M
10 | O=C(c1cccc(F)c1)N1CCN(c2cccc(C(F)(F)F)c2)CC1 | inconclusive: 2.8e-09 M
11 | O=c1[nH]c2sc3c(c2c(=O)n1Cc1ccccc1)CCC3 | inconclusive: 2e-09 M
12 | Cc1cc(COc2ccccc2OCc2cc(C)no2)on1 | inconclusive: 8.6e-09 M
13 | Cc1c(C(=O)NCc2cccnc2)oc2ccc(S(=O)(=O)N3CCCCCC3)cc12 | inactive
14 | CCOC(=O)O[C@@H](C)OC(=O)[C@@H]1N2C(=O)[C@@H](NC(=O)[C@@H](N)c3ccccc3)[C@H]2SC1(C)C | inconclusive: 2e-09 M
15 | CSC(=N)N | inactive
16 | CC(C)Cc1[nH]c(=O)c(C#N)c2c1COC(C)(C)C2 | active: 1.2e-08 M
17 | C=CCn1nnnc1SCC(=O)Nc1ccccc1C(=O)OC | inactive
18 | O=C(CSc1nc2ccccc2n1CC(=O)N1CCCC1)NCc1ccc2c(c1)OCO2 | inconclusive: 2.7e-09 M
19 | CCn1c2ccccc2c2cc(NC(=O)C3CCN(S(=O)(=O)c4cccs4)CC3)ccc21 | inconclusive: 8.1e-09 M
20 | O=C(c1ccco1)N1CCN(C(=O)c2ccccc2Oc2ccccc2)CC1 | inactive
21 | CCNC(=O)N1c2ccc(OC)cc2C(C)=CC1(C)C | active: 6.2e-08 M
22 | CN(C)c1ccc(NC(=O)c2cc3c(=O)n4ccccc4nc3n2C)cc1 | active: 8e-08 M
23 | O=C1NCC2(CCN(CCc3ccccc3)CC2)O1 | active: 7.3e-08 M

4 records drawn at random from those above, as already listed:
Row | Structure (SMILES) | max dye-equivalent concentration
20 | O=C(c1ccco1)N1CCN(C(=O)c2ccccc2Oc2ccccc2)CC1 | inactive
11 | O=c1[nH]c2sc3c(c2c(=O)n1Cc1ccccc1)CCC3 | inconclusive: 2e-09 M
12 | Cc1cc(COc2ccccc2OCc2cc(C)no2)on1 | inconclusive: 8.6e-09 M
22 | CN(C)c1ccc(NC(=O)c2cc3c(=O)n4ccccc4nc3n2C)cc1 | active: 8e-08 M

Further entries

Row | Structure (SMILES) | max dye-equivalent concentration
24 | CSc1ncc(Cl)c(C(=O)C(C#N)c2nc3c(C)cc(C)cc3c(=O)[nH]2)n1 (stereo not given) | inconclusive: 2.2e-09 M
25 | COCCNC(=O)c1cc2c(=O)n3cccc(C)c3nc2n(Cc2ccncc2)c1=N | inconclusive: 7.8e-09 M
26 | CCOc1ccc2nc(NCCCNS(=O)(=O)c3ccccc3)c(C#N)cc2c1 | active: 5.8e-08 M
27 | O=C(Nc1ccc(Cl)cc1)N1CCC(c2nc(-c3cccs3)no2)CC1 | inactive
28 | CC(CN1CCCC1)OC(=O)COc1ccccc1 (stereo not given) | inactive
29 | CC1CCN(C(=O)COC(=O)c2n[nH]c3ccccc23)CC1 | inconclusive: 2.1e-09 M
30 | CN(C(=O)c1ccncc1)c1nnc(-c2ccccn2)s1 | inconclusive: 4.9e-09 M
31 | O=c1[nH]c2ccccc2cc1-c1noc(-c2cccnc2)n1 | active: 2.8e-07 M
32 | Cc1cnc(CNc2ncncc2-c2cccc(NS(C)(=O)=O)c2)cn1 | inactive
33 | CN1CCN(c2ncc3nc(-c4cc(F)cc(F)c4)c(=O)n(Cc4cccs4)c3n2)CC1 | inconclusive: 6.4e-09 M
34 | CCCC(C(=O)NC1CCCC1)N(Cc1cccs1)C(=O)c1snc(C(N)=O)c1N (stereo not given) | active: 6e-08 M
35 | Cc1ccc(-c2noc(CCCC(=O)Nc3cccnc3)n2)cc1 | inconclusive: 1.8e-09 M
36 | O=C(c1nc2n(n1)C(c1ccc(Cl)cc1)C=C(c1ccccc1)N2)N1CCOCC1 (stereo not given) | active: 2.3e-08 M
37 | Cc1cnc(CNc2ccnc(-c3ccccc3C(F)(F)F)n2)cn1 | inactive
38 | COc1ccc(N2CCN(Cc3nc4ccccc4c(=O)[nH]3)CC2)cc1 | inconclusive: 3.5e-09 M
39 | c1cncc(-c2nc(-c3ccco3)cs2)c1 | inconclusive: 3.8e-09 M
40 | Cc1noc(C)c1C(=O)NCCCN1CCCC1=O | inconclusive: 1.2e-09 M
41 | Cc1nnc2sc(-c3ccc(NC(=O)c4cccnc4)cc3)nn12 | active: 4.3e-08 M
42 | COc1ccccc1C1C(C#N)=C(N)Oc2cc(C)n(Cc3ccccn3)c(=O)c21 (stereo not given) | inconclusive: 1.5e-09 M
43 | COc1ccccc1CN(Cc1cc2cc(C)ccc2[nH]c1=O)Cc1nnnn1CC1CCCO1 (stereo not given) | inconclusive: 5.4e-09 M
44 | COc1ccc(OC)c2sc(N3CCCCC3)nc12 | inconclusive: 4.5e-09 M
45 | COC(=O)CSc1nnc(-c2ccccc2O)n1-c1ccc(C)cc1 | inconclusive: 1.8e-09 M
46 | O=c1c(-c2cccs2)nc2cnc(Oc3ccccc3)nc2n1Cc1cccs1 | inconclusive: 1.9e-09 M

Row | Structure (SMILES) | max dye-equivalent concentration
47 | CCCCOc1ncnc2c1[nH]c1ccccc12 | inconclusive: 1.4e-09 M
48 | COc1ccc(-c2cnc(SCC(=O)Nc3cc(C)on3)n2Cc2ccco2)cc1 | inactive
49 | COc1ccc(-c2[nH]ncc2-c2ccc3c(c2)OCCO3)c(O)c1 | inconclusive: 1.1e-09 M
50 | COc1ccc2cc3cc(C(=O)NCC4CCCO4)oc3nc2c1 (stereo not given) | active: 8.2e-06 M
51 | Cc1cccn2c(=O)c3cc(C(=O)NCC4CCCO4)c(=N)n(Cc4cccnc4)c3nc12 (stereo not given) | active: 1.5e-05 M
52 | CNC(=O)N(O)C1N(C)C(=O)N(CC(=O)OC)C1(C)C (stereo not given) | active: 2e-07 M
53 | COCCNc1ccnc(-c2ccccc2C(F)(F)F)n1 | inactive
54 | Cc1oc2c(C)c3oc(=O)c4c(c3cc2c1C)CCC4 | active: 1.3e-08 M
55 | O=C(c1cnc(N2CCN(c3ncccn3)CC2)c2ccccc12)N1CCN(c2ccccn2)CC1 | inconclusive: 4.7e-09 M
56 | COc1ccc2c(c1)[nH]c1c(=O)n(CC3CCCO3)cnc12 (stereo not given) | inactive
57 | COc1cccc(NC(=O)c2ccc3c(c2)N(CC(=O)N2CCCCC2)C(=O)C(C)(C)O3)c1 | active: 9.5e-08 M
58 | CCn1c(SCc2ccc(C#N)cc2)nnc1-c1ccc(S(=O)(=O)N2CCCCC2)cc1 | active: 4.3e-07 M
59 | Cc1cccc(S(=O)(=O)c2c(N)n(/N=C/c3cccnc3)c3nc4ccccc4nc23)c1 | active: 2.8e-08 M
60 | Cc1c(CN2CCCCC2)c(O)n(CCCO)c(=O)c1C#N | inconclusive: 6.8e-09 M
61 | Cc1cc(C)n2c(Br)c(CSc3nc4ccccc4o3)nc2n1 | active: 2.9e-08 M
62 | CCCNC(=O)NS(=O)(=O)c1ccc(Cl)cc1 | inactive
63 | CC1CN(S(=O)(=O)c2cccc(C(=O)OCc3cc(=O)oc4cc(O)ccc34)c2)CC(C)O1 (stereo not given) | active: 4.2e-07 M
64 | CCOC(=O)N1CCC(NC(=O)c2cc(S(=O)(=O)N3CCC4(CC3)OCCO4)ccc2F)CC1 | inconclusive: 2e-09 M
65 | Cc1ccc(C)c(NC(=O)CN(C)S(=O)(=O)c2ccc(F)cc2)c1 | inconclusive: 3.8e-09 M
66 | CC1(C)Cc2c(c(-c3ccco3)nc3n[nH]c(N)c23)CO1 | inactive
67 | Cc1ccccc1-n1c(SC/C(O)=C(\C#N)c2nc3ccccc3[nH]2)nnc1-c1ccncc1 | inconclusive: 7e-09 M
68 | CCOC(=O)c1c(N)sn(-c2ccccc2C)c1=S | inconclusive: 1.3e-09 M
69 | CCN(Cc1cc2cc(OC)ccc2[nH]c1=O)C(=O)c1ccncc1 | active: 2e-07 M

Row | Structure (SMILES) | max dye-equivalent concentration
70 | NC(=O)CCn1nc(-c2ccccc2)c2ccccc2c1=O | inconclusive: 1.1e-09 M
71 | O=C(O)CCc1ccc(-c2ccccc2)n1Cc1ccco1 | active: 4.5e-08 M
72 | COc1cc(NC(=O)c2ccccc2Cl)c(OC)cc1NC(=O)CN1CCOCC1 | inconclusive: 1.2e-09 M
73 | O=C(CN1C(=O)CCS(=O)(=O)c2ccccc21)NCc1ccc2c(c1)OCO2 | inactive
74 | Brc1cc2c(cc1Cn1c(-c3cncs3)nc3ccccc31)OCO2 | inactive
75 | COC(=O)c1[nH]c2ccc(Cl)cc2c1NC(=O)CN1CCC(C(N)=O)CC1 | inconclusive: 2.5e-09 M
76 | Cn1c(NCc2ccco2)nc2ccccc21 | inconclusive: 2.7e-09 M
77 | CCOc1ccc(-c2nnc3ccc(SC)nn23)cc1 | active: 1.2e-08 M
78 | COc1ccc2[nH]cc(CCNc3ccnc(-c4cccc(C#N)c4)n3)c2c1 | inactive
79 | CCCCc1c(O)nc2n(c1=O)CCS2 | inconclusive: 2.1e-09 M
80 | Fc1ccc(CSc2nncn2NCc2ccc3c(c2)OCO3)cc1 | inconclusive: 1.3e-09 M
81 | Cc1ccc(Cn2nnc3c(=O)[nH]c(C4CCN(S(=O)(=O)c5ccc(C)cc5)CC4)nc32)cc1 | inactive
82 | Cc1ccc(N=Cc2c(O)n(C)c(=O)n(C)c2=O)nc1 | active: 2.2e-08 M
83 | COC(=O)c1cc(=O)nc2sc(-c3ccc(F)cc3)nn12 | inconclusive: 2e-09 M
84 | Cc1cccc2cc(CN(CCCO)C(=O)Nc3cccc(Cl)c3)c(=O)[nH]c12 | inactive
85 | O=C(COC(=O)c1ccccc1NC(=O)c1ccco1)NCc1ccc2c(c1)OCO2 | inconclusive: 4.6e-09 M
86 | COc1ccc(-c2nc3cnc(N4CCN(C)CC4)nc3n(Cc3cccc(OC)c3)c2=O)cc1 | inconclusive: 2.4e-09 M
87 | CC(C)[C@H](Nc1ncnc2nc[nH]c12)C(=O)O | inactive
88 | O=C(O)CN1C(=O)CSc2ccccc21 | inconclusive: 9.3e-09 M
89 | CCCCOC(=O)c1cc(=O)[nH]c2ccccc12 | active: 4.5e-08 M
90 | CC(=O)Nc1ccc(S(=O)(=O)N2CCC(N(C)CCC(C)C)CC2)cc1 | inconclusive: 2.2e-09 M

Of the compounds above, these contain bromine.
Row | Structure (SMILES) | max dye-equivalent concentration
61 | Cc1cc(C)n2c(Br)c(CSc3nc4ccccc4o3)nc2n1 | active: 2.9e-08 M
74 | Brc1cc2c(cc1Cn1c(-c3cncs3)nc3ccccc31)OCO2 | inactive

Source: PubChem BioAssay AID590 (National Center for Advancing Translational Sciences (NCATS), 2007)
